Source: PubChem BioAssay AID1259254 (NCATS, 2017)

- Purpose: 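Genome-wide screen for genes that prevent DNA re-replication in cancer cells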 (primary screen)
- Cell system: human HCT116 colorectal cancer cells
- Reagents: single siRNA against human genes
- Timing: 3 days
- Detection: 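Imaged Hoechst DNA stain sorts each cell into a cycle phase by DNA amount; per plate, G2 fraction set to 0% for non-targeting and 100% for GMNN siRNA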
- Scale: G2 robust z-score and G2 cells, % of GMNN control: higher = more G2 cells, more excess DNA replication
- Hit rule: 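An siRNA counts as active if its G2 robust z-score lies at least 5 MADs above the screen median; here such calls match roughly 38% of GMNN control or more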
The deposit covers about 59,000 reagents; shown is a random part of them. In the full data, about 1,550 (2.6%) are marked active. 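G2 share is only a proxy for re-replication; each gene was hit by three separate siRNAs, and active genes were retested.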 Reagents against one gene are numbered here. Further read-outs or replicates are left out here. The record does not give: the amount of reagent.

Depletion of ZPBP2 #1 resulted in: G2 robust z-score 1.37; G2 cells, % of GMNN control 12.6; inactive.
After knock-down of ZPBP2 #2, the record shows G2 robust z-score -0.965; G2 cells, % of GMNN control -3.83; inactive.
ZPBP2 #3 gave G2 robust z-score -0.138; G2 cells, % of GMNN control 2; inactive.
Against GDF10 #1 the deposit lists G2 robust z-score 0.425; G2 cells, % of GMNN control 5.96; inactive.
After knock-down of GDF10 #2 the results were G2 robust z-score 2.71; G2 cells, % of GMNN control 22; inactive.
With knock-down of GDF10 #3 the results were G2 robust z-score 0.25; G2 cells, % of GMNN control 4.73; inactive.

2 entries already listed, arranged by “G2 cells, % of GMNN control”, high to low.
ZPBP2 #3: G2 robust z-score = -0.138; G2 cells, % of GMNN control = 2; activity call = inactive
ZPBP2 #2: G2 robust z-score = -0.965; G2 cells, % of GMNN control = -3.83; activity call = inactive

The listing continues:
UNC50 #1 showed G2 robust z-score 4; G2 cells, % of GMNN control 31.1; inactive.
Knock-down of UNC50 #2 came out at: G2 robust z-score -0.14; G2 cells, % of GMNN control 1.98; inactive.
Against UNC50 #3, the entry reads G2 robust z-score 0.0609; G2 cells, % of GMNN control 3.4; inactive.
With knock-down of UBE2Z #1 the results were G2 robust z-score -1.1; G2 cells, % of GMNN control -4.76; inactive.
For UBE2Z #2, the entry reads G2 robust z-score 1.16; G2 cells, % of GMNN control 11.2; inactive.
Silencing of UBE2Z #3 came out at: G2 robust z-score 0.671; G2 cells, % of GMNN control 7.69; inactive.
